Data as given in PubChem BioAssay AID743121 (NCATS, 2013).

Assay: 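Genes whose silencing strengthens cell killing by camptothecin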 (primary screen)
Cells: MDA-MB-231 cells, a human breast cancer line
Reagents: single siRNA against human genes, 20 nM siRNA (0.8 pmol per well)
Duration: 120 h (drug added 48 h after transfection, read 72 h later)
Challenge: camptothecin 20 nM (about EC30) for 72 h; vehicle 0.1% DMSO in parallel plates
Read-out: 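Cell viability by ATP luminescence (CellTiter-Glo) as % of non-targeting siRNA wells, and the log2 ratio of viability without drug over viability with camptothecin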
Scale: log2 vehicle/camptothecin viability: higher = stronger sensitisation to camptothecin
Hit rule: 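Active genes have an RSA gene-level p-value below 0.001, computed from the ratios of their separate siRNAs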
Here is a random part of about 26,000 reagents tested. 167 of them (0.63%) count as active. 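Calls are per gene from RSA p-values that are not deposited; an individual active-marked siRNA can sensitise only weakly.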 Reagents against one gene are numbered here. Not all columns of the deposit are shown.

log2 vehicle/camptothecin viability, by target gene and reagent
GNAL (GeneID 2774): #1 -0.377 inactive; #2 0.549 inactive; #3 -0.126 inactive; #4 -0.0228 inactive
MED23 (GeneID 9439): #1 -0.121 inactive; #2 -0.105 inactive; #3 0.156 inactive; #4 -0.139 inactive
TRMT2A (GeneID 27037): #1 -0.0411 inactive; #2 -0.166 inactive; #3 -0.133 inactive; #4 -0.166 inactive
TBC1D22A (GeneID 25771): #1 -0.23 inactive; #2 0.0318 inactive; #3 -0.188 inactive; #4 -0.315 inactive
MASTL (GeneID 84930): #1 -0.654 inactive; #2 -0.0816 inactive; #3 -0.236 inactive; #4 -0.465 inactive
FBXO2 (GeneID 26232): #1 -0.374 inactive; #2 -0.259 inactive; #3 -0.439 inactive; #4 -0.0691 inactive
NUAK1 (GeneID 9891): #1 -0.285 inactive; #2 -0.0214 inactive; #3 -0.305 inactive; #4 0.315 inactive
IL10 (GeneID 3586): #1 -0.383 inactive; #2 0.111 inactive; #3 -0.0612 inactive; #4 -0.283 inactive
RNF31 (GeneID 55072): #1 0.517 active; #2 0.488 active; #3 0.423 active; #4 1.49 active
CTSD (GeneID 1509): #1 -0.323 inactive; #2 -0.604 inactive; #3 -0.517 inactive
DHX57 (GeneID 90957): #1 0.183 inactive; #2 -0.0708 inactive; #3 -0.667 inactive; #4 -0.349 inactive
KCNK5 (GeneID 8645): #1 0.164 inactive; #2 -0.341 inactive; #3 0.353 inactive; #4 -0.153 inactive

Quoted from the entries so far for reference:
log2 vehicle/camptothecin viability, by target gene and reagent
RNF31 (GeneID 55072): #2 0.488 active; #3 0.423 active; #4 1.49 active
CTSD (GeneID 1509): #1 -0.323 inactive; #2 -0.604 inactive; #3 -0.517 inactive
DHX57 (GeneID 90957): #1 0.183 inactive; #2 -0.0708 inactive; #3 -0.667 inactive; #4 -0.349 inactive
KCNK5 (GeneID 8645): #1 0.164 inactive; #2 -0.341 inactive; #3 0.353 inactive; #4 -0.153 inactive

Continued:
log2 vehicle/camptothecin viability, by target gene and reagent
PGPEP1 (GeneID 54858): #1 -0.393 inactive; #2 -7.19 inactive; #3 -0.124 inactive; #4 -0.264 inactive
KIF4B (GeneID 285643): #1 -0.329 inactive; #2 -0.00596 inactive; #3 0.0925 inactive; #4 -0.219 inactive
TRIM17 (GeneID 51127): #1 0.147 inactive; #2 -0.0327 inactive; #3 -0.847 inactive; #4 -0.35 inactive
UBE3A (GeneID 7337): #1 0.328 inactive; #2 0.0161 inactive; #3 -0.198 inactive; #4 0.0577 inactive
GRIK3 (GeneID 2899): #1 -0.371 inactive; #2 0.435 inactive; #3 -0.357 inactive; #4 -0.352 inactive
SFN (GeneID 2810): #1 -0.31 inactive; #2 -0.216 inactive; #3 -0.609 inactive; #4 0.333 inactive
PKDREJ (GeneID 10343): #1 -0.229 inactive; #2 0.0558 inactive; #3 0.0422 inactive; #4 0.0254 inactive
HTRA2 (GeneID 27429): #1 0.419 inactive; #2 -0.245 inactive; #3 0.267 inactive; #4 -0.472 inactive
PLPP3 (GeneID 8613): #1 -0.071 inactive; #2 -0.211 inactive; #3 -0.283 inactive; #4 -0.254 inactive
PTPN3 (GeneID 5774): #1 -0.389 inactive; #2 -0.538 inactive; #3 -0.124 inactive; #4 -0.416 inactive
